Data: PubChem BioAssay AID1332 (Southern Research Institute, 2008)
This list holds what a sample rich in hits left over. Active and inactive are the calls of the source. No rule for the calls is given here.

test: Confirmatory growth inhibition assay, mycobacterium tuberculosis h37rv, with cytotoxicity (AID 1332);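 as to IC50: bacteria incubated 7 days before adding Alamar blue readout reagent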; conditions: M. tuberculosis H37Rv growth inhibition; measured here: IC50 H37Rv replicates

Question: For CN1[C@@H]2CC[C@H]1CC(OC(=O)C(O)c1ccccc1)C2 (some centres not stated), which IC50 is on record?
Answer: Its IC50 is over 20 µg/mL.

Question: And the outcome?
Answer: The outcome was “inactive”.
